Reference: patent publication US20150329825A1, “COMPOSITIONS AND METHODS EMPLOYING STEM CELL-DERIVED CARDIOMYOCYTES” (THE REGENTS OF THE UNIVERSITY OF MICHIGAN, priority 2014, published 2015)

System: hiPSC-CM monolayers
Assay: 96 well optical mapping of intracellular calcium flux in hiPSC-CM monolayers under IKr blockade
Type: cell-based, human
Conditions: 100 nmol L^-1 E4031
Description: Briefly, monolayers were loaded with the intracellular Ca^2+ indicator, rhod-2AM (10 μmol L-1, Life Technologies). After a 30 minute incubation time, the cells were washed in Hanks balanced salt solution (HBSS, Life Technologies) for an additional 30 minutes before optical mapping recordings. […] Movies were filtered in both the time and space domain and conduction velocity (CV) was measured as described previously (Hou L, et al., Circulation Research. 2010;107:1503-1511, herein incorporated by reference in its entirety).
To further investigate whether PDMS+matrigel promotes the expression of other potassium currents, the effects of E4031 (100 nmol L^−1), a selective blocker of the rapid component of the delayed rectifier potassium current (IKr) on the spontaneous beating rate and calcium transient duration (CaTD80) of hiPSC-CM monolayers cultured on matrigel coated PDMS was compared to those cultured on standard rigid, plastic bottom 96 well dishes (also matrigel coated, FIG. 11 illustrates how this multi-well optical mapping platform was used). Small glass coverslips to fit into a 96 well format dish are not readily available so here plastic was used as the rigid comparator for PDMS. […] This effect on beating frequency is due to the effect of E4031 to prolong the action potential and calcium transient durations.

## Cc1cccc(CCN2CCC(C(=O)c3ccc(NS(C)(=O)=O)cc3)CC2)n1 [E4031]
PDMS bottom dishes, n=5
  fold increase of calcium transient duration (CaTD80): ~1.34 ×
Monolayers on matrigel coated PDMS, n=5, pre 1.02±0.04 Hz
  spontaneous beating frequency post E4031: 0.78±0.07 Hz
Monolayers on rigid plastic (matrigel coated), n=8, pre 0.83±0.02 Hz
  spontaneous beating frequency post E4031: 0.45±0.05 Hz
Plastic bottom dishes, n=8
  fold increase of calcium transient duration (CaTD80): ~3 ×
